# Measurements reported in paper PMC7819943, “Rice protein-binding microarrays: a tool to detect cis-acting elements near promoter regions in rice”.
# Some of the results follow.
# Molecular target: T1, OsSMF1 (Oryza sativa, UniProt Q6ZLB0 1-436)
# T1 sequence: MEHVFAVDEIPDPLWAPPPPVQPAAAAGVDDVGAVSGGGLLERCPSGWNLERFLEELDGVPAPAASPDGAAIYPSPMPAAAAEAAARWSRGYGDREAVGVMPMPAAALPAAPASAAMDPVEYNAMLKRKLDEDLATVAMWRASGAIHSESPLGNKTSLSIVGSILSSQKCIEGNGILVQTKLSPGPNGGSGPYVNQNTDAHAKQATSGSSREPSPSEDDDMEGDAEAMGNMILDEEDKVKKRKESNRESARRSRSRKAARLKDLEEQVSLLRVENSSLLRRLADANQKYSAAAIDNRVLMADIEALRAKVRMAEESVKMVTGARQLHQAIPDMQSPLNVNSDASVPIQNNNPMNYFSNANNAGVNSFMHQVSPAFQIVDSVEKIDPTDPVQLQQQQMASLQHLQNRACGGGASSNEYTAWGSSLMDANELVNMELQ
# Assay: protein-binding microarray (RPBM); PBS, 2% BSA, 51.3 ng/ul salmon testes DNA, 50 uM zinc acetate, 200 nM TF, 25 C, 1 h; high values mean tight binding
# Settings: protein: recombinant; tags: N-terminal polyhistidine and DsRed monomer fusion (pET32a); chain copies: 2; label: CyDye5-dUTP incorporated in the synthesized complementary strand; 3' TTTTT single-stranded linker to array surface; dsDNA, one strand shown
# In short: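 For the binding signal, per-feature fluorescence intensity was read in arbitrary units on an Axon 4000B scanner. Before scanning, a 2% BSA-blocked custom Agilent array made double-stranded with Cy5-dUTP was washed after 1 h at 25 °C with 200 nM protein and 50 µM zinc acetate. The proteins were Ni–NTA-purified transcription factors with N-terminal polyhistidine and DsRed fusions, expressed in E. coli BL21-CodonPlus.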
row,Sequence,binding signal
1,GTTATCGTCATTACGTCAATACGTGTTTTCGAAAATAATTCGGAGTCACCTAGTGCAG,4860 fluorescence intensity (a.u.)
2,AAAAGGGCATCGATACCATCTCAATAATGCAGTATGACAACGGAGTCACCTAGTGCAG,5520 fluorescence intensity (a.u.)
3,GCCAACTGGCCGCTCCGCCCCGCGTCGTGCCCTCTCCGGCCGGAGTCACCTAGTGCAG,16900 fluorescence intensity (a.u.)
4,TCTTCCAAGTAGGAAAATATGCTGACATAGATCTCTTGTACGGAGTCACCTAGTGCAG,3660 fluorescence intensity (a.u.)
5,ATCTCTATCCACCCTCTCTCGTTTACTCTCTCTCTTTCCCCGGAGTCACCTAGTGCAG,3360 fluorescence intensity (a.u.)
6,GTAATGAGCTTTTCACGACTTTGTTGAATTTGCTATTATTCGGAGTCACCTAGTGCAG,26800 fluorescence intensity (a.u.)
7,AGTTGTCTTTGGATGTTTGCACTGTCCCATGACGTGATGCCGGAGTCACCTAGTGCAG,4260 fluorescence intensity (a.u.)
8,CCAGCACTGAAAGCTACTGCCACCTCATATGCTGACAAGGCGGAGTCACCTAGTGCAG,16800 fluorescence intensity (a.u.)
9,CGAGGCATGCCCCGGTGTTGCTGACGAGGGCCTCAAGGCGCGGAGTCACCTAGTGCAG,8090 fluorescence intensity (a.u.)
10,GGGAATATATGCATTGTATCGTATGTGTTTCAGGCACAAGCGGAGTCACCTAGTGCAG,16700 fluorescence intensity (a.u.)
11,ATTTGCAAAAGGGGAATGCTTGTGCTCAAAAGGATGAGTGCGGAGTCACCTAGTGCAG,3800 fluorescence intensity (a.u.)
12,CTGGGCAAAATCTCTCCCATACATACACTACAGCGGCGAACGGAGTCACCTAGTGCAG,3290 fluorescence intensity (a.u.)
13,CTCAATGTCTCGAATGCGTCATCGAGCAAAAGTAATCAGGCGGAGTCACCTAGTGCAG,4660 fluorescence intensity (a.u.)
14,ATATTAAACTGTCTAAGAACATAACTCGAATCCGTATTAACGGAGTCACCTAGTGCAG,4930 fluorescence intensity (a.u.)
15,CCATGGCGGGGTGTATTGTTGTTGTATTTGGGGTTCTGGTCGGAGTCACCTAGTGCAG,3630 fluorescence intensity (a.u.)
16,GGCAGCCACGTCCACCTGTCCCTCCACGCCCCTCCCGTGCCGGAGTCACCTAGTGCAG,9530 fluorescence intensity (a.u.)
17,CAAATCCAAAACCCTTGCTCCCACAGGAGTGAACACGACGCGGAGTCACCTAGTGCAG,3400 fluorescence intensity (a.u.)
18,TCTAGTTAATACGTGTGCTTGGGAGTCCTTGCAATTTGAACGGAGTCACCTAGTGCAG,3800 fluorescence intensity (a.u.)
19,ACCCAAACTGGAAACGTGAAGGGCCCGTGAAATAAGAGATCGGAGTCACCTAGTGCAG,36900 fluorescence intensity (a.u.)
20,GGCCATCACAGTCATAAGTTAGACACGTTATTATTGATGGCGGAGTCACCTAGTGCAG,35100 fluorescence intensity (a.u.)
21,ATTTTCTGTTAAACTTTTGATTGGATCCATCTTTGTAATCCGGAGTCACCTAGTGCAG,35400 fluorescence intensity (a.u.)

# Pulled one by one from the entries so far (three):
row,Sequence,binding signal
15,CCATGGCGGGGTGTATTGTTGTTGTATTTGGGGTTCTGGTCGGAGTCACCTAGTGCAG,3630 fluorescence intensity (a.u.)
13,CTCAATGTCTCGAATGCGTCATCGAGCAAAAGTAATCAGGCGGAGTCACCTAGTGCAG,4660 fluorescence intensity (a.u.)
16,GGCAGCCACGTCCACCTGTCCCTCCACGCCCCTCCCGTGCCGGAGTCACCTAGTGCAG,9530 fluorescence intensity (a.u.)

# (list continues)

row,Sequence,binding signal
1,TGACTGCTGGCTCACATCCAGTCATTGGCTTAGCTAGCTGCGGAGTCACCTAGTGCAG,4160 fluorescence intensity (a.u.)
2,TTCTATTCTCCCAAAATTCCTATAGAACGAGATATTCCATCGGAGTCACCTAGTGCAG,22200 fluorescence intensity (a.u.)
3,AGCCTATGGCGCCACGACGACGGGTGCATGGCGTGGCTAGCGGAGTCACCTAGTGCAG,3750 fluorescence intensity (a.u.)
4,ATCCCGGGGAAAATCCGCACCGAGCAACCGACGTGTTCCGCGGAGTCACCTAGTGCAG,3530 fluorescence intensity (a.u.)
5,GAAGGCGCTGCTGTCGTGGGCGGTGGAGGAGCTCCCCATGCGGAGTCACCTAGTGCAG,4110 fluorescence intensity (a.u.)
6,TGCAAATCCAATCCAATCCAATCCCACCCCAAGCTCGCGGCGGAGTCACCTAGTGCAG,3670 fluorescence intensity (a.u.)
7,TGATTTCGTTTCGACGATCTCGAGGCGCCGCGGCGTGACGCGGAGTCACCTAGTGCAG,29200 fluorescence intensity (a.u.)
8,GCATATAAACTTAGTGGGTGATCAATAACCGACTTTGCATCGGAGTCACCTAGTGCAG,3240 fluorescence intensity (a.u.)
9,CCGCGACCAACGCGAGGCGAGCGAGACGCGTCATCTCGCCCGGAGTCACCTAGTGCAG,8540 fluorescence intensity (a.u.)
10,ACCTTTAGCTTTTCCTGCCTCCCTCCTTCTTTCCCTCCTCCGGAGTCACCTAGTGCAG,21900 fluorescence intensity (a.u.)
11,CCAGTTCGGGATGGGCCCCAGCCAGGTCATCCCTCGCCGGCGGAGTCACCTAGTGCAG,7160 fluorescence intensity (a.u.)
12,TATATACAAGTTCACCCCGAAACCTAGTCAGAGTATGACACGGAGTCACCTAGTGCAG,4240 fluorescence intensity (a.u.)
13,GGCGCTGCAGCACGTACGTGGTTGGTTGGTTGGTTGGTTGCGGAGTCACCTAGTGCAG,4550 fluorescence intensity (a.u.)
14,CGAGTGCCACGCGTGCGCCCACCGCCACGTCACCGATCCCCGGAGTCACCTAGTGCAG,53800 fluorescence intensity (a.u.)
15,GAGCCTTGATCACGTCACTTCTCTCCTCAGGACTAGTGGCCGGAGTCACCTAGTGCAG,3370 fluorescence intensity (a.u.)
16,GAGTATGGTAGATGGTGTCATGATCTCACGCCGTGTCTATCGGAGTCACCTAGTGCAG,5250 fluorescence intensity (a.u.)
17,AAATCAATAGTTTGGACAATACGTGTCTGCGTGTTCGTAACGGAGTCACCTAGTGCAG,4560 fluorescence intensity (a.u.)
18,TTTGTATTTCTGTCATGATTATGATGGTAGTAAATATGTACGGAGTCACCTAGTGCAG,5030 fluorescence intensity (a.u.)
19,TCGTATCGCTTTGGCTATGTGGGCTTGGTCACGTCCACTGCGGAGTCACCTAGTGCAG,3590 fluorescence intensity (a.u.)
20,CGCAGAGATGCCTGACTGGGGAGGTCATCCCAGTCCGGTGCGGAGTCACCTAGTGCAG,3850 fluorescence intensity (a.u.)
21,GTGTAATAACACACTTGACAGTTGACGCGGCATCGCGAGACGGAGTCACCTAGTGCAG,4560 fluorescence intensity (a.u.)
